# Measurements taken from PubChem BioAssay AID445 (National Center for Advancing Translational Sciences (NCATS), 2006).
# This is one part of the list. The main result of the screen is listed elsewhere. These columns were measured beside it and carry no call. Compounds called inactive in the main read-out are mostly missing here. The note in brackets gives the kind of curve behind each potency; many fits are weak.
# Assay: IkB Signaling
# Conditions: ABC-DLBCL IkBa-CBG/CBR dual luciferase ratio (green luciferase fused to IkBa over red control in OCI-Ly3 lymphoma cells), 4 h
# In short: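 In this assay, an IκBα–CBG68 fusion accumulates when IKK-driven degradation is blocked; native CBR normalizes for cell number. OCI-Ly3 cells were treated 4 h with compound and doxycycline, then green and red light read after Chroma-Glo addition.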
# [1] = measured here: control luc red channel unless noted
structure (smiles),measurement,setting,value
Nc1[nH]nc2nc(N3CCOCC3)nc(-c3ccccc3)c12,AC50,[1],"39.8 µM [falling, single point]"
COc1ccc2oc(-c3ccc(C)c(NC(=O)CSc4ccc(Cl)cc4)c3)nc2c1,AC50,[1],"7.94 µM [falling, full curve]"
CC(=O)N1c2ccc(S(=O)(=O)N3CCN(c4cccc(Cl)c4)CC3)cc2CC1C (configuration not stated),AC50,[1],"0.2 µM [falling, full curve, poor fit]"
COc1cccc(NC(=O)Cn2c(=O)n(CC(=O)NCCc3ccccc3)c(=O)c3sccc32)c1,AC50,[1],"31.6 µM [falling, single point]"
Cc1ccc2nc(-c3ccco3)c(Nc3ccc4c(c3)OCCO4)n2c1,AC50,[1],"20 µM [falling, partial curve]"
CCn1c(SCC(N)=O)nc2c(c1=O)C1(CCCC1)Cc1ccccc1-2,AC50,[1],"25.1 µM [falling, single point]"
CCc1c(C)nc2nc(-c3ccccc3)nn2c1NCc1ccc(C)cc1,AC50,[1],"12.6 µM [falling, partial curve]"
COc1cccc2[nH]c(C(=O)NCc3ccc4c(c3)CCN4C(=O)c3ccc(F)cc3)cc12,AC50,[1],"3.16 µM [falling, partial curve, poor fit]"
CN(C)c1ccc(/C=N/n2ncc3ccccc32)cc1,AC50,[1],"3.16 µM [falling, partial curve]"
CCC(C)(C)n1nnnc1C(c1cccs1)N1CCN(c2nc3ccccc3s2)CC1 (configuration not stated),AC50,[1],"12.6 µM [falling, partial curve]"
Clc1ccccc1-c1nnc2sc(C3COc4ccccc4O3)nn12 (configuration not stated),AC50,[1],"20 µM [falling, single point]"
COc1ccc(CNC(=O)c2ccc(-c3nc(CS(=O)c4ccc(C)cc4)c(C)o3)cc2)cc1 (configuration not stated),AC50,[1],"10 µM [falling, single point]"
COc1ccc2c(c1)c(=O)c(C(=O)c1ccc(Cl)cc1)cn2CC(=O)Nc1ccc2c(c1)OCCO2,AC50,measured here: IkB-luc green channel,"39.8 µM [rising, single point]"
same,AC50,measured here: control luc red channel,"15.8 µM [falling, partial curve]"
O=C1CC2(CCCC2)CC(=O)N1CCCCN1CCN(c2ncccn2)CC1,AC50,[1],"12.6 µM [rising, partial curve, poor fit] [measured here: IkB-luc green channel]"
CCOc1cc(C2C(C(=O)OC)=C(C)NC3=C2C(=O)c2ccccc23)cc(Br)c1OCC (configuration not stated),AC50,[1],"15.8 µM [falling, partial curve]"
COc1ccc(CNC(=O)CS(=O)(=O)c2cccc3nsnc23)cc1,AC50,[1],"1 µM [rising, full curve]"
Cc1ccc(OC(=O)CSc2nnc(-c3cccs3)o2)c(C)c1,AC50,[1],"7.94 µM [falling, partial curve]"
CC1=C(C(=O)OC2CCCCCC2)C(c2ccc(Cl)cc2)CC(=O)N1 (configuration not stated),AC50,[1],"25.1 µM [falling, single point]"
CC(=O)OCC(=O)[C@@]1(O)CC[C@@H]2[C@H]3CCC4=CC(=O)CC[C@]4(C)[C@]3(F)[C@@H](O)C[C@@]21C,AC50,[1],"12.6 nM [rising, full curve] [measured here: IkB-luc green channel]"
Cc1cc(C)n(-c2ccc(C(=O)N3CCc4ccccc43)cc2)n1,AC50,[1],"25.1 µM [falling, partial curve]"
CCc1cc2cccc(C)c2nc1SCC(=O)N1CCN(C(=O)c2ccco2)CC1,AC50,[1],"25.1 µM [falling, partial curve]"
Cc1cccc(C(=O)Nc2ccc(S(=O)(=O)N3CCCCC3c3cccnc3)cc2)c1 (configuration not stated),AC50,[1],"20 µM [falling, partial curve]"
Cc1ccc(-n2ncc3c(N4CCN(Cc5ccccc5)CC4)ncnc32)cc1,AC50,[1],"12.6 µM [falling, partial curve]"
Cc1ccc(CNC(=O)C(C)n2c(=O)cc(-c3ccccc3)c3c(C)nn(C)c32)cc1 (configuration not stated),AC50,[1],"39.8 µM [falling, single point]"
Cc1ccc2nc(-c3c[nH]c4ccccc34)c(Nc3ccc(F)cc3)n2c1,AC50,[1],"0.0126 µM [falling, full curve]"
O=C(CN(C1CC1)S(=O)(=O)c1ccc(S(=O)(=O)NC2CCCCC2)cc1)Nc1ccccc1,AC50,[1],"15.8 µM [falling, partial curve]"
COc1ccccc1N1CCN(C(=O)c2ccc3c(c2)CCN3S(=O)(=O)c2ccccc2)CC1,AC50,[1],"12.6 µM [falling, partial curve]"
COc1ccc2c(Sc3ccccc3)c(C(=O)NCc3cc(Br)ccc3OC)[nH]c2c1,AC50,[1],"3.16 µM [falling, full curve]"
CCCn1ccc2c(OCC(=O)Nc3ccc(OC)c(OC)c3)cccc2c1=O,AC50,[1],"31.6 µM [falling, partial curve]"
COc1ccccc1CNC(=O)c1ccc(CSc2nc3ccncc3n2Cc2cccc(F)c2)cc1,AC50,[1],"15.8 µM [falling, partial curve]"
Cc1ccc2c(=O)cc(C(=O)Nc3nc4ccc(Cl)cc4s3)oc2c1,AC50,[1],"1.58 µM [falling, full curve]"
Cc1cccc(-c2cc3nc4c(c(N5CCOCC5)n3n2)CCCC4)c1,AC50,[1],"20 µM [falling, single point]"
COc1ccc(CCNc2nc3c(c(=O)n(C)c(=O)n3C)n2Cc2ccccc2Cl)cc1OC,AC50,[1],"39.8 µM [falling, single point]"
O=C(CSc1nnc(-c2ccc(Cl)cc2)n1Cc1ccco1)Nc1ccc2c(c1)OCCO2,AC50,[1],"31.6 µM [falling, partial curve]"
Cc1csc2nc(-c3cccc(NC(=O)c4c(F)cccc4F)c3)cn12,AC50,[1],"39.8 µM [falling, single point]"
CCOc1ccc(NC(=O)c2ccc(N)cc2)cc1,AC50,[1],"12.6 µM [falling, partial curve]"
O=C(Nc1ccc(S(=O)(=O)N(Cc2ccccc2)c2ccccc2)cc1)c1ccc(F)cc1,AC50,[1],"5.01 µM [falling, partial curve]"
O=C(CCc1ccccc1)N1CCc2c([nH]c3ccccc23)C1c1ccc(F)cc1 (configuration not stated),AC50,[1],"12.6 µM [falling, partial curve]"
CN1C(=O)c2ccccc2Sc2ccc(NC(=O)c3ccc(C#N)cc3)cc21,AC50,[1],"25.1 µM [falling, partial curve]"
COc1ccc(-c2cc(C(=O)Nc3c(C)n(C)n(-c4ccccc4)c3=O)no2)cc1,AC50,[1],"15.8 µM [falling, partial curve]"
COc1cc(CNc2ccc3[nH]c(=O)[nH]c3c2)cc(Cl)c1OCc1ccc(F)cc1,AC50,[1],"0.0631 µM [falling, full curve]"
Cc1nn(C(C)(C)C)c(OC(=O)c2c(F)cccc2F)c1Sc1ccccc1,AC50,[1],"25.1 µM [falling, single point]"
COc1cccc(NC(=O)C2CCN(c3nnc(-n4c(C)ccc4C)s3)CC2)c1,AC50,[1],"31.6 µM [falling, single point]"
COc1cccc(CN2CCCN(S(=O)(=O)c3ccc(Br)cc3)CC2)c1,AC50,[1],"20 µM [falling, partial curve]"
Cc1ccc(CNC(=O)C2CCCN(Cc3nc(-c4cccc(C)c4)oc3C)C2)cc1 (configuration not stated),AC50,[1],"39.8 µM [falling, single point]"
Cc1ccc(-c2nc3c(c(SCC(=O)Nc4cccc(C(=O)O)c4)n2)Cc2cccc(C)c2O3)cc1,AC50,[1],"10 µM [falling, partial curve]"
O=C(CSc1nc2sc3c(c2c(=O)[nH]1)CCCC3)Nc1ccccc1F,AC50,[1],"15.8 µM [falling, partial curve]"
Cc1ccc(NC(=O)CCn2cnc3onc(-c4ccc(F)cc4)c3c2=O)c(Br)c1,AC50,[1],"0.01 µM [falling, full curve, poor fit]"
CC(=O)N1C=CN(C(C)=O)C(c2cn(C)c3ccccc23)C1c1cn(C)c2ccccc12 (configuration not stated),AC50,[1],"31.6 µM [falling, single point]"
Cc1ccccc1C(=O)Nc1cccc(C(=O)OCc2cc(=O)n3nc(C4CC4)sc3n2)c1,AC50,[1],"3.98 µM [falling, full curve]"
Cc1ccc(C)c(CN2C(=O)c3ccccc3Sc3ccc(C(=O)NCc4ccc5c(c4)OCO5)cc32)c1,AC50,[1],"6.31 µM [falling, partial curve]"
COc1ccc(NC(=O)c2c(NC(=O)c3cccc(C)c3)sc3c2CCCC3)cc1,AC50,[1],"7.94 µM [falling, full curve]"
CC(=O)c1cccc(NC(=O)c2ccc3nc(C(C)C)oc3c2)c1,AC50,[1],"31.6 µM [falling, single point]"
O=C1c2oc3ccccc3c(=O)c2C(c2cccc(Br)c2)N1c1ccccn1 (configuration not stated),AC50,[1],"39.8 µM [falling, single point]"
CCCCN(C)C(=O)Cn1cnc2sc(C)c(S(=O)(=O)N3CCN(c4ccccc4OC)CC3)c2c1=O,AC50,[1],"3.16 µM [falling, partial curve]"
CCOC(=O)c1[nH]c2ccccc2c1NC(=O)c1cc(OCC)c(OCC)c(OCC)c1,AC50,[1],"1.26 µM [falling, full curve, poor fit]"
NC(=O)c1sc(=S)n(-c2ccc(Br)cc2)c1N,AC50,[1],"39.8 µM [falling, single point]"
CCOC(=O)N1CCC(Nc2ccc3nnc(-c4ccccc4)n3n2)CC1,AC50,[1],"10 µM [falling, partial curve]"
COc1ccc(-c2noc(CSc3nnc(-c4ccncc4)n3-c3ccc(C)c(C)c3)n2)cc1,AC50,[1],"31.6 µM [falling, single point]"
Clc1ccc(Nc2nc(-c3ccccc3)c3cc(Cl)ccc3n2)cc1,AC50,[1],"20 µM [falling, partial curve]"
Cc1cc(C)n(CC(O)COc2cccc(OCC(O)Cn3nc(C)cc3C)c2)n1 (configuration not stated),AC50,[1],"20 µM [falling, partial curve]"

# 4 entries from above, with bars between the fields.
structure (smiles) | measurement | setting | value
Cc1ccc2c(=O)cc(C(=O)Nc3nc4ccc(Cl)cc4s3)oc2c1 | AC50 | [1] | 1.58 µM [falling, full curve]
Cc1cccc(-c2cc3nc4c(c(N5CCOCC5)n3n2)CCCC4)c1 | AC50 | [1] | 20 µM [falling, single point]
COc1ccc(CCNc2nc3c(c(=O)n(C)c(=O)n3C)n2Cc2ccccc2Cl)cc1OC | AC50 | [1] | 39.8 µM [falling, single point]
O=C(CSc1nnc(-c2ccc(Cl)cc2)n1Cc1ccco1)Nc1ccc2c(c1)OCCO2 | AC50 | [1] | 31.6 µM [falling, partial curve]
